{"sequences": {"note": "By UniProt entry, the sequences of proteins in these tests, tags left out. Where a name states a change or a piece, a line headed by the entry shows the natural chain unless it says otherwise. Residues count along the entry.", "UniProt P11717, residues 41-2491": "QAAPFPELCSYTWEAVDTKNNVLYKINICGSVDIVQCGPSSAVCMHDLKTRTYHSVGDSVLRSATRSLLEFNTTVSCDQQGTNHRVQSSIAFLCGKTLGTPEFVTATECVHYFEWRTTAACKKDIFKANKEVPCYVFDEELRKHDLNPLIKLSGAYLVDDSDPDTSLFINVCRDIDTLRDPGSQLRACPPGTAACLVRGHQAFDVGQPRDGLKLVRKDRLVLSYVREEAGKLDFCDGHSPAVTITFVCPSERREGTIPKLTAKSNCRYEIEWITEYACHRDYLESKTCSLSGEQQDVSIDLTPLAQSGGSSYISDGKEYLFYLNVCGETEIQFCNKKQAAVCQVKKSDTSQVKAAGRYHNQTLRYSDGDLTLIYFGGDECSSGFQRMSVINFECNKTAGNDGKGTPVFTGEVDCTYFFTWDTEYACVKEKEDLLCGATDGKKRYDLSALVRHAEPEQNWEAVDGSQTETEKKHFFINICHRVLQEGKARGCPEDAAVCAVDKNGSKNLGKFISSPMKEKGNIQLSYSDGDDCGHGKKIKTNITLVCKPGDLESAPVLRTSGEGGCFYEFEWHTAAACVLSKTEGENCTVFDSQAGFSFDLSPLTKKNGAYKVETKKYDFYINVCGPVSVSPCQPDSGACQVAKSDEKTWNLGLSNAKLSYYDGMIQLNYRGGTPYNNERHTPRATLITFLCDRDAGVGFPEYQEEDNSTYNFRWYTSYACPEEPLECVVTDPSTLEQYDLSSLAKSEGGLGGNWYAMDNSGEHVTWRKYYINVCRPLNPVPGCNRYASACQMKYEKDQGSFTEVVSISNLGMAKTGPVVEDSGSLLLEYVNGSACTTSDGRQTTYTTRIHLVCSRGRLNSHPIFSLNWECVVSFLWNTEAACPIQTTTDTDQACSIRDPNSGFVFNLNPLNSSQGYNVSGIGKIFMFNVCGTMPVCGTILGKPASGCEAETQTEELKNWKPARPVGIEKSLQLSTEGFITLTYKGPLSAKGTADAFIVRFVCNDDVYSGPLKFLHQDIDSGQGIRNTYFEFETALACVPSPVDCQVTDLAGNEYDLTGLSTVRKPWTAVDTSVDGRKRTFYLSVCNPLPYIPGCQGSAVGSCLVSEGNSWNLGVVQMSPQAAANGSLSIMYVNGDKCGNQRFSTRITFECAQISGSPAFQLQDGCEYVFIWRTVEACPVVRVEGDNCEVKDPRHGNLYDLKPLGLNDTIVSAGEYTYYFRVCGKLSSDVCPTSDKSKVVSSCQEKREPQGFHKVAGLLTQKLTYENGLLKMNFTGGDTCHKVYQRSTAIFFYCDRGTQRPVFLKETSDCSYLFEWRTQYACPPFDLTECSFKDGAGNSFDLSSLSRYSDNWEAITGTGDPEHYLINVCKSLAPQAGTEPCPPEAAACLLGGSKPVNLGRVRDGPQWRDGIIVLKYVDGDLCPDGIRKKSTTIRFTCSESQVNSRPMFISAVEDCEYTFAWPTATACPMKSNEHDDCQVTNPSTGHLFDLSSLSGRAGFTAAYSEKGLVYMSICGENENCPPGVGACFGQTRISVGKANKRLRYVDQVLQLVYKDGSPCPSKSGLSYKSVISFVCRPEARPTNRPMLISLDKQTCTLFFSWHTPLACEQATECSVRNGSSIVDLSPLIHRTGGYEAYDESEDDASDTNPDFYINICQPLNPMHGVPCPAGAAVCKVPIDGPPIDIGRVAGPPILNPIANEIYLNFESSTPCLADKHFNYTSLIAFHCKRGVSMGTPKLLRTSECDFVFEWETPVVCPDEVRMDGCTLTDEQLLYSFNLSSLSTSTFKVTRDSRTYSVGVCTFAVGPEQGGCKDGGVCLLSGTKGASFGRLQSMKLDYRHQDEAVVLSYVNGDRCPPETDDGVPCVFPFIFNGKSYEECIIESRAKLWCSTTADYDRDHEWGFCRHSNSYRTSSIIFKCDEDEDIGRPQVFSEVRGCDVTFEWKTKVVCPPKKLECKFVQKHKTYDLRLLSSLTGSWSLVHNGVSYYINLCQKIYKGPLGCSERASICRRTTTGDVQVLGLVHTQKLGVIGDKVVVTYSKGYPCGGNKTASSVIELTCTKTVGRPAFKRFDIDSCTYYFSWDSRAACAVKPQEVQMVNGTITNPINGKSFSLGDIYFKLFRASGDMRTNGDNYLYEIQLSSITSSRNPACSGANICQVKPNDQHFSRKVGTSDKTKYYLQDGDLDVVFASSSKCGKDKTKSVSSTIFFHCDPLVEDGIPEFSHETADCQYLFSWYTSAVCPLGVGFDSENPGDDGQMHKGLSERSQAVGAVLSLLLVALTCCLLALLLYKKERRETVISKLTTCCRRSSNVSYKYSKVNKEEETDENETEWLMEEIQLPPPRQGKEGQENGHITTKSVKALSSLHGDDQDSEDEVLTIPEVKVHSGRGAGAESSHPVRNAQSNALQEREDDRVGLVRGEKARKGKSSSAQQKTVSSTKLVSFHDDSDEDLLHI", "UniProt Q9H1D0": "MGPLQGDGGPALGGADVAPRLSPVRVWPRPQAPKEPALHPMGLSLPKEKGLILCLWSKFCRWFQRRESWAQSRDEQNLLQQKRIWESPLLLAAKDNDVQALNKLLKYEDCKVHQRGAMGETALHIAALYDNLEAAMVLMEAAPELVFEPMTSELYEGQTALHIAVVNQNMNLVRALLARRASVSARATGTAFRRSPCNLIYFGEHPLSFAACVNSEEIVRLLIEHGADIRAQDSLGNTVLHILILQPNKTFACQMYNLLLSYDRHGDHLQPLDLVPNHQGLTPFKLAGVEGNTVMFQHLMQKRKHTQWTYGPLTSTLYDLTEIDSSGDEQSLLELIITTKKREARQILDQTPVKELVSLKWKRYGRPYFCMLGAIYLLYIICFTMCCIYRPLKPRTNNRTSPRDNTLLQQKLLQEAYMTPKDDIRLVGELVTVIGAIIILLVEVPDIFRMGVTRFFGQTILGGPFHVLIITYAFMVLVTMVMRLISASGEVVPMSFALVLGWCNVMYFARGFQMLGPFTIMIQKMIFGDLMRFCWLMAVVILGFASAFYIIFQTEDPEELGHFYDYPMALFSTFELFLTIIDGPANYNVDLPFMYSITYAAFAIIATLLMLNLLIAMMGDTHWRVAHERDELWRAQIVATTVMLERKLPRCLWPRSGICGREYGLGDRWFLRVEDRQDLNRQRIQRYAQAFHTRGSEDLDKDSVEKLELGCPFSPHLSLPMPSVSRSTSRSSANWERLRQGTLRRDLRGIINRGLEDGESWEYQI", "UniProt P07686": "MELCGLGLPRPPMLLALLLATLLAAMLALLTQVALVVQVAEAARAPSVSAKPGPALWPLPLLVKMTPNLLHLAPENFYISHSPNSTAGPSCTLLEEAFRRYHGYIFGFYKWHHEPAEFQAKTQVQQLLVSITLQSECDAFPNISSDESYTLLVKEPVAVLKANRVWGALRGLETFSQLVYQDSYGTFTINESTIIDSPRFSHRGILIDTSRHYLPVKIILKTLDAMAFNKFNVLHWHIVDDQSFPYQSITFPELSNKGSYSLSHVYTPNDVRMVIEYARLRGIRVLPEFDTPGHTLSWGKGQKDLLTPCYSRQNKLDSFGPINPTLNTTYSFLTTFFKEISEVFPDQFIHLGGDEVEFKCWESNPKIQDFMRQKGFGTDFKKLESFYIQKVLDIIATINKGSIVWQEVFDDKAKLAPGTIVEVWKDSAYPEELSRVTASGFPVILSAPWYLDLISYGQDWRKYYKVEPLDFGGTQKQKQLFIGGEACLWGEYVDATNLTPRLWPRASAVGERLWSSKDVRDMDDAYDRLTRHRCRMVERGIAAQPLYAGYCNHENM"}, "source": "paper PMC12837008", "note": "No constants are given. Whether binding was seen depends on the method and setting. Binding seen in cells or lysates may run through a third protein. A yes stands for co-enrichment or nearness to the bait. Other partners may have been found. Where a sequence is shown, tags or fusion partners need not be part of it.", "data": [{"target": "IGF2ReGFP (cation independent mannose-6-phosphate receptor, CI-M6PR/IGF2R, fused to eGFP) (human (cloned from BeWo cDNA)) (UniProt P11717)", "experiment": "affinity purification with mass spectrometry; eluates of the same immunoprecipitates (TRPV6 antibody, GFP antibody, IgG controls) from TRPV6 and IGF2R transfected HEK cells; in-gel tryptic digest, label free LC-ESI-HRMS/MS, n = 3", "values": [{"molecule": "TRPV6mRFP (TRPV6 fused to mRFP) (from UniProt Q9H1D0 1-765)", "binding": "binds"}, {"molecule": "beta-hexosaminidase subunit beta (HEXB) (from UniProt P07686) (enzyme)", "binding": "binds"}, {"molecule": "N-acetylcosamin-6-sulfatase (GNS) (enzyme, UniProt P15586 37-552) VFGVAAGTRRPNVVLLLTDDQDEVLGGMTPLKKTKALIGEMGMTFSSAYVPSALCCPSRASILTGKYPHNHHVVNNTLEGNCSSKSWQKIQEPNTFPAILRSMCGYQTFFAGKYLNEYGAPDAGGLEHVPLGWSYWYALEKNSKYYNYTLSINGKARKHGENYSVDYLTDVLANVSLDFLDYKSNFEPFFMMIATPAPHSPWTAAPQYQKAFQNVFAPRNKNFNIHGTNKHWLIRQAKTPMTNSSIQFLDNAFRKRWQTLLSVDDLVEKLVKRLEFTGELNNTYIFYTSDNGYHTGQFSLPIDKRQLYEFDIKVPLLVRGPGIKPNQTSKMLVANIDLGPTILDIAGYDLNKTQMDGMSLLPILRGASNLTWRSDVLVEYQGEGRNVTDPTCPSLSPGVSQCFPDCVCEDAYNNTYACVRTMSALWNLQYCEFDDQEVFVEVYNLTADPDQITNIAKTIDPELLGKMNYRLMMLQSCSGPTCRTPGVFDPGYRFDPRLMFSNRGSVRTRRFSKHLL", "binding": "binds"}, {"molecule": "beta-Glucoronidase (BGLR) (enzyme, UniProt P08236 23-651) LQGGMLYPQESPSRECKELDGLWSFRADFSDNRRRGFEEQWYRRPLWESGPTVDMPVPSSFNDISQDWRLRHFVGWVWYEREVILPERWTQDLRTRVVLRIGSAHSYAIVWVNGVDTLEHEGGYLPFEADISNLVQVGPLPSRLRITIAINNTLTPTTLPPGTIQYLTDTSKYPKGYFVQNTYFDFFNYAGLQRSVLLYTTPTTYIDDITVTTSVEQDSGLVNYQISVKGSNLFKLEVRLLDAENKVVANGTGTQGQLKVPGVSLWWPYLMHERPAYLYSLEVQLTAQTSLGPVSDFYTLPVGIRTVAVTKSQFLINGKPFYFHGVNKHEDADIRGKGFDWPLLVKDFNLLRWLGANAFRTSHYPYAEEVMQMCDRYGIVVIDECPGVGLALPQFFNNVSLHHHMQVMEEVVRRDKNHPAVVMWSVANEPASHLESAGYYLKMVIAHTKSLDPSRPVTFVSNSNYAADKGAPYVDVICLNSYYSWYHDYGHLELIQLQLATQFENWYKKYQKPIIQSEYGAETIAGFHQDPPLMFTEEYQKSLLEQYHLGLDQKRRKYVVGELIWNFADFMTEQSPTRVLGNKKGIFTRQRQPKSAAFLLRERYWKIANETRYPHSVAKSQCLENSLFT", "binding": "binds"}, {"molecule": "lysosomal-Pro-X-carboxypeptidase (PCP, PRCP) (enzyme, UniProt P42785 46-496) KNYSVLYFQQKVDHFGFNTVKTFNQRYLVADKYWKKNGGSILFYTGNEGDIIWFCNNTGFMWDVAEELKAMLVFAEHRYYGESLPFGDNSFKDSRHLNFLTSEQALADFAELIKHLKRTIPGAENQPVIAIGGSYGGMLAAWFRMKYPHMVVGALAASAPIWQFEDLVPCGVFMKIVTTDFRKSGPHCSESIHRSWDAINRLSNTGSGLQWLTGALHLCSPLTSQDIQHLKDWISETWVNLAMVDYPYASNFLQPLPAWPIKVVCQYLKNPNVSDSLLLQNIFQALNVYYNYSGQVKCLNISETATSSLGTLGWSYQACTEVVMPFCTNGVDDMFEPHSWNLKELSDDCFQQWGVRPRPSWITTMYGGKNISSHTNIVFSNGELDPWSGGGVTKDITDTLVAVTISEGAHHLDLRTKNALDPMSVLLARSLEVRHMKNWIRDFYDSAGKQH", "binding": "binds"}, {"molecule": "lysosomal alpha-mannosidase (MA2B1) (enzyme, UniProt O00754 50-1011) GGYETCPTVQPNMLNVHLLPHTHDDVGWLKTVDQYFYGIKNDIQHAGVQYILDSVISALLADPTRRFIYVEIAFFSRWWHQQTNATQEVVRDLVRQGRLEFANGGWVMNDEAATHYGAIVDQMTLGLRFLEDTFGNDGRPRVAWHIDPFGHSREQASLFAQMGFDGFFFGRLDYQDKWVRMQKLEMEQVWRASTSLKPPTADLFTGVLPNGYNPPRNLCWDVLCVDQPLVEDPRSPEYNAKELVDYFLNVATAQGRYYRTNHTVMTMGSDFQYENANMWFKNLDKLIRLVNAQQAKGSSVHVLYSTPACYLWELNKANLTWSVKHDDFFPYADGPHQFWTGYFSSRPALKRYERLSYNFLQVCNQLEALVGLAANVGPYGSGDSAPLNEAMAVLQHHDAVSGTSRQHVANDYARQLAAGWGPCEVLLSNALARLRGFKDHFTFCQQLNISICPLSQTAARFQVIVYNPLGRKVNWMVRLPVSEGVFVVKDPNGRTVPSDVVIFPSSDSQAHPPELLFSASLPALGFSTYSVAQVPRWKPQARAPQPIPRRSWSPALTIENEHIRATFDPDTGLLMEIMNMNQQLLLPVRQTFFWYNASIGDNESDQASGAYIFRPNQQKPLPVSRWAQIHLVKTPLVQEVHQNFSAWCSQVVRLYPGQRHLELEWSVGPIPVGDTWGKEVISRFDTPLETKGRFYTDSNGREILERRRDYRPTWKLNQTEPVAGNYYPVNTRIYITDGNMQLTVLTDRSQGGSSLRDGSLELMVHRRLLKDDGRGVSEPLMENGSGAWVRGRHLVLLDTAQAAAAGHRLLAEQEVLAPQVVLAPGGGAAYNLGAPPRTQFSGLRRDLPPSVHLLTLASWGPEMVLLRLEHQFAVGEDSGRNLSAPVTLNLRDLFSTFTITRLQETTLVANQLREAASRLKWTTNTGPTPHQTPYQLDPANITLEPMEIRTFLASVQWKEVDG", "binding": "binds"}]}]}
